Measured values taken from PMC8874583.
These are yes or no findings as the source states them, for the method shown. In cells and extracts the contact can be indirect. Some binding calls cover weakened binding; strength is not graded here.

Sequences of proteins named here, by UniProt entry; tags and fusion partners are left off. A change or cut given only in a name is not applied to a line headed by its entry. A line that says so, or that is headed by a name, gives the form on record, which may keep a tag or linker.
Flag-MDA5 (porcine MDA5) (A7LCX1, form named): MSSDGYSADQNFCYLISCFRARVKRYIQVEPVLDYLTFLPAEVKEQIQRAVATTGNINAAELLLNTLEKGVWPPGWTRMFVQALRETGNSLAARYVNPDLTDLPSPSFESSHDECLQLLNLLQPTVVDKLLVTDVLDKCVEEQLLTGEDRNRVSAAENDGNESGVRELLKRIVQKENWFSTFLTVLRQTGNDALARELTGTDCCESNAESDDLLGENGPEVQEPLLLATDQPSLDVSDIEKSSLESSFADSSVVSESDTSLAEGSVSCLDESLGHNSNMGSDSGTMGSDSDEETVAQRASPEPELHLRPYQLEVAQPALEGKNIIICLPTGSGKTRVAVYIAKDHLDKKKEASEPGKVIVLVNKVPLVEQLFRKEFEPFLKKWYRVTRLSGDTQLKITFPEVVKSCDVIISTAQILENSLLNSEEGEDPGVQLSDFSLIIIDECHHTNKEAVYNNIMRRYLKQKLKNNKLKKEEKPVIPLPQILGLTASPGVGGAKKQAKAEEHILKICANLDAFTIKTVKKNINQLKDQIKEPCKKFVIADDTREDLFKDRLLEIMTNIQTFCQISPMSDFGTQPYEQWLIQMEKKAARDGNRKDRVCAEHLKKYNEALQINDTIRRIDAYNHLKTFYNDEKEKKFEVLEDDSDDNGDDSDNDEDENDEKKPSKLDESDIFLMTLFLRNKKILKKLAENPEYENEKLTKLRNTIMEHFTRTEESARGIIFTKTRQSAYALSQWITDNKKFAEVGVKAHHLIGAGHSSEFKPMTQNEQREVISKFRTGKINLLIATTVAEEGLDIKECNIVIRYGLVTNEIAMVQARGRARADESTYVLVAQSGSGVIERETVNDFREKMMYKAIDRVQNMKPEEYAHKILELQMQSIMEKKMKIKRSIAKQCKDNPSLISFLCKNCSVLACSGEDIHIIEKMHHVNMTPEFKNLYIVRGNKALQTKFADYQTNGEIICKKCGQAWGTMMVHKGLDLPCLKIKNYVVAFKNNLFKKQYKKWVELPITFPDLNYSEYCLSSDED
UniProt A0A4X1VVC5: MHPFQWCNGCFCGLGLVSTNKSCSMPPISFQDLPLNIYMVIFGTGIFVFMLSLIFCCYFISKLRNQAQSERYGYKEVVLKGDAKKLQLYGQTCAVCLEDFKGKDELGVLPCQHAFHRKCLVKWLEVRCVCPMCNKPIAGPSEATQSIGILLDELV

Biological target: Flag-MDA5 (porcine MDA5) (porcine) (UniProt A7LCX1)
Experiment: co-IP

For “HA-RNF122 (porcine E3 ubiquitin ligase RNF122) (from UniProt A0A4X1VVC5 1-155)”, the binding was “binds”.
